Results reported in PubChem BioAssay AID2685 (National Center for Advancing Translational Sciences (NCATS), 2010).
The list shows a part of the results. These are further read-outs of the screen, such as a control signal, another cell line or another target. No call is given for them. Compounds called inactive in the main read-out are mostly missing here. Potencies come from curve fits of mixed quality, noted in brackets.

Assay: qHTS Assay for Lipid Storage Modulators in Drosophila S3 Cells;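 on cell number change: cells counted by Cell Tracker Red CMTPX staining in the red channel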
Settings: BODIPY lipid droplet fluorescence, 18-24 h; for cell number change: measured here: cell count max response, cells fed with added oleic acid
Summary of the method: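 Drosophila S3 cells got compounds at several concentrations plus oleic acid (400 uM solution). Laser-scanning cytometry with 488 nm excitation read lipid droplets at 500-530 nm and cells at 575-640 nm. Percent activity was relative to 20 uM Triacsin C.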

[1] = measured here: cell number channel AC50, cells fed with added oleic acid
[2] = measured here: lipid fluorescence (Fed channel) AC50, cells fed with added oleic acid

## Cc1cc(C)cc(NC(=O)C(=O)NCCCN2CCOCC2)c1
  cell number change: -17.9%
[1]
  AC50: 0.651 µM [rising, single point]
[2]
  AC50: 29.1 µM [falling, single point]

## CCN(CC)S(=O)(=O)c1ccc(Nc2nc3ccccc3n3nnnc23)cc1
  cell number change: -18.1%
[2]
  AC50: 1.16 µM [rising, full curve, poor fit]

## [O-][n+]1cccc2ncc3cscc3c21
  cell number change: -30.8%
[1]
  AC50: 32.6 µM [falling, single point]

## CCNc1nc(NC(C)(C)C)nc(N(CC)n2cnnc2)n1
  cell number change: 3.74%
[2]
  AC50: 32.6 µM [rising, single point]

## N#Cc1c2nc3ccccc3nc2n2cc(NC(=O)c3ccc(F)cc3)ccc12
[1]
  AC50: 0.82 µM [rising, full curve]

## CCc1cc(C(=O)OC)c(NC(=O)CC2NCCNC2=O)s1 (configuration not stated)
  cell number change: -0.473%
[2]
  AC50: 29.1 µM [rising, single point]

## O=C(Cn1cnc2c(nnn2Cc2ccccc2)c1=O)NCC1CCCO1 (configuration not stated)
  cell number change: -17.1%
[2]
  AC50: 0.13 µM [falling, full curve, poor fit]

## C=CC(C)(O)CCCC(C)CCCC(C)CCCC(C)C (configuration not stated)
  cell number change: -20.4%
[2]
  AC50: 0.116 µM [falling, single point]

## CCOC(=O)Cc1csc(NC(=O)CSc2nnc3ccccn23)n1
  cell number change: 79.9%

## O=C(COC(=O)/C=C/c1ccc(C(F)(F)F)cc1)NCC1CCCCC1
  cell number change: -2.43%
[2]
  AC50: 0.103 µM [rising, full curve, poor fit]

## CCN(Cc1ccccc1)C1CCN(Cc2ccccc2)CC1
  cell number change: -15.2%
[1]
  AC50: 0.00461 µM [falling, full curve, poor fit]

## CSCC[C@H](NC(=O)[C@H](Cc1ccccc1)n1c(=O)[nH]c2ccccc2c1=O)C(=O)N1CCC[C@@H]1C(=O)O
  cell number change: 40.5%
[1]
  AC50: 29.1 µM [rising, single point]
[2]
  AC50: 29.1 µM [rising, single point]

## CCOc1cc(O)c(-c2[nH]ncc2-c2nc(C)cs2)cc1CC
  cell number change: -37.8%
[1]
  AC50: 29.1 µM [falling, single point]
[2]
  AC50: 1.84 µM [falling, partial curve]

## Cc1cc(C)n(CCCNC(=O)CCNS(=O)(=O)c2ccccc2C(F)(F)F)n1
  cell number change: 3.51%

## Cc1cc(NC(=O)c2ccc(-c3ccccc3F)o2)no1
  cell number change: 38.7%

## Cc1cc(C)c(NS(=O)(=O)c2ccc(NC(=O)/C=C/C(=O)O)cc2)c(C)c1
  cell number change: 37%
[1]
  AC50: 20.6 µM [rising, single point]

## O=C(COC(=O)c1cccc(S(=O)(=O)N2CCCCCC2)c1)Nc1ccccc1C(F)(F)F
  cell number change: -1.55%
[2]
  AC50: 6.51 µM [rising, single point]

## Cc1ccnc(NC(=O)c2ccc(Cl)c(NC(=O)CCc3ccccc3)c2)c1
  cell number change: -8.6%
[2]
  AC50: 0.651 µM [rising, single point]

## Cc1ccc(OC(=O)c2cccc(C(=O)Oc3ccc(C)cc3)n2)cc1
  cell number change: 60.9%
[1]
  AC50: 29.1 µM [rising, single point]
[2]
  AC50: 3.66 µM [falling, single point]

## CCCC(=O)c1c[nH]c(C(=O)NCc2ccco2)c1
  cell number change: 60%
[1]
  AC50: 13 µM [rising, partial curve, poor fit]

## Cn1cccc1C(=O)OCc1cc(Cl)cc2c1OCOC2
  cell number change: 74.7%
[1]
  AC50: 20.6 µM [rising, single point]
[2]
  AC50: 5.17 µM [falling, single point]

## CCOc1ccc(Cn2nnc(-c3ccc(S(C)(=O)=O)cc3)n2)cc1OCC
  cell number change: -18.5%
[2]
  AC50: 0.0291 µM [rising, full curve]

## CCC(=O)c1c[nH]c(C(=O)NCc2ccco2)c1
  cell number change: 69.6%
[1]
  AC50: 25.9 µM [rising, single point]
[2]
  AC50: 20.6 µM [rising, single point]

## NC(=O)c1ccsc1NC(=O)CCS(=O)(=O)c1ccc(F)cc1
  cell number change: 69.1%
[1]
  AC50: 20.6 µM [rising, single point]

## CC(C)(C)n1ncc(Oc2ccccc2[N+](=O)[O-])c(Cl)c1=O
  cell number change: -33.2%
[1]
  AC50: 29.1 µM [falling, single point]
[2]
  AC50: 23.1 µM [falling, single point]

## COC(=O)c1cc(Cl)c(NC(=O)Cc2ccccc2)cc1OC
  cell number change: 30.6%
[1]
  AC50: 0.651 µM [rising, full curve]

## Cc1c(Br)c([N+](=O)[O-])nn1CC(=O)N1CCCc2ccccc21
  cell number change: 9.77%
[1]
  AC50: 3.26 µM [rising, single point]

## COc1ccc(C(=O)NC(=S)Nc2ccc3oc(=O)ccc3c2)cc1[N+](=O)[O-]
  cell number change: 1.08%
[2]
  AC50: 5.17 µM [falling, single point]

## COc1ccc(CCNC(=O)c2ccccc2-c2ccccc2C(=O)O)cc1OC
  cell number change: 26.6%
[2]
  AC50: 0.164 µM [rising, full curve, poor fit]

## O=C([O-])c1cc(-c2ccccc2)cc(-c2ccccc2)[n+]1Cc1ccccc1
  cell number change: -52.6%
[1]
  AC50: 29.1 µM [falling, single point]
[2]
  AC50: 29.1 µM [falling, single point]

## CCCN(CCC)S(=O)(=O)c1ccc(NC(=O)COc2ccccc2)cc1
  cell number change: 0.817%
[2]
  AC50: 29.1 µM [falling, single point]

## Cc1cc(C(=O)N2CCN(S(=O)(=O)c3ccc(C)c(C)c3)CC2)no1
  cell number change: -12.5%

## O=C(NC(Cc1c[nH]c2ccccc12)C(=O)N/N=C/c1cccnc1)c1cccs1 (configuration not stated)
  cell number change: 2.77%
[1]
  AC50: 6.51 µM [falling, single point]

## COc1cc(/C(C)=C/c2ccccc2)c2c(c1)oc1ccccc12
  cell number change: 19.1%
[2]
  AC50: 9.2 µM [rising, partial curve]

## CC1CCC(NC(=O)COC(=O)c2ccc3ncsc3c2)CC1 (configuration not stated)
  cell number change: 26.7%
[2]
  AC50: 0.411 µM [rising, full curve, poor fit]

## O=C(NCCc1ccc(Cl)cc1)C1CCN(C(=O)c2ccc(F)cc2)CC1
  cell number change: 21.8%
[2]
  AC50: 13 µM [rising, partial curve, poor fit]

## COc1ccccc1NC(=O)CSc1nc2ccccc2c(=O)n1CCNC(C)=O
  cell number change: -25.9%
[2]
  AC50: 0.103 µM [rising, full curve, poor fit]

## C=CCn1c(SCC(=O)N(C)C2CCS(=O)(=O)C2)nc2ccccc2c1=O (configuration not stated)
  cell number change: 115%

## O=C(Nc1ccc2c(c1)OCCO2)c1cccc(S(=O)(=O)N2CCCCC2)c1
  cell number change: 5.43%
[1]
  AC50: 1.84 µM [rising, partial curve]
[2]
  AC50: 18.4 µM [rising, partial curve]

## O=C(NCCCN1CCOCC1)C(=O)NCC1OCCCN1S(=O)(=O)c1cc(F)ccc1F (configuration not stated)
  cell number change: 11.8%
[2]
  AC50: 2.31 µM [falling, single point]

## O=C(O)c1nc(N2CCCC2)ncc1Cl
  cell number change: -60%
[1]
  AC50: 20.6 µM [falling, partial curve]

## Cc1c(C=O)c2ccccc2n1CCOc1ccccc1
  cell number change: -23.6%
[2]
  AC50: 29.1 µM [falling, single point]

## CCOC(=O)N1CCC2(CC1)C(C#N)=C(N)Oc1c2sc2nc(C)cc(C)c12
  cell number change: 4.61%
[2]
  AC50: 3.26 µM [rising, full curve, poor fit]

## CCOc1ccc(NC(=O)CSc2nc(=O)n(CCCN3CCOCC3)c3c2CCC3)cc1
  cell number change: -0.321%

## COc1cc(NC(=O)CNC(=O)Cn2ccc3ccccc3c2=O)cc(OC)c1OC
  cell number change: 25.7%

## CC1(C)CC(=O)c2c(noc2-c2ccccc2)C1
  cell number change: -37%
[1]
  AC50: 16.4 µM [falling, partial curve]
[2]
  AC50: 14.6 µM [falling, partial curve]

## Cc1ccc(C)c(S(=O)(=O)N2CCN(C(=O)CCc3nc4ccccc4c(=O)[nH]3)CC2)c1
  cell number change: 77.1%
[1]
  AC50: 29.1 µM [rising, single point]

## COC(=O)CCS(=O)(=O)c1ccc(Cl)c(Cl)c1
  cell number change: -15.9%

## COCCCNC(=O)CCn1c(=O)c2ccccc2n(CC(=O)Nc2cc(Cl)ccc2C)c1=O
  cell number change: 12.1%
[2]
  AC50: 29.1 µM [rising, partial curve, poor fit]

## NC(=O)COC(=O)c1cccc2c1-c1ccccc1C2=O
  cell number change: -9.08%
[2]
  AC50: 0.00731 µM [falling, full curve, poor fit]

## CC(C)CNS(=O)(=O)c1ccc(CCC(=O)N2CCN(c3ccccc3)CC2)cc1
[2]
  AC50: 3.66 µM [rising, partial curve]

## CC1CCCC(C)N1C(=O)Cc1ccccc1 (configuration not stated)
  cell number change: 19.3%
[2]
  AC50: 1.16 µM [falling, full curve]

## CCOC(=O)N1CCN(C(=O)Nc2sc3nc4n(c(=O)c3c2C)CCC(C)CC4)CC1 (configuration not stated)
  cell number change: -15.5%

## CCC(COC)NC(=O)c1ccc(OC)c(OC2CCN(C(C)=O)CC2)c1 (configuration not stated)
  cell number change: 7.42%
[2]
  AC50: 29.1 µM [rising, single point]

## COC(=O)c1cccc(N(C(=O)c2cnccn2)C(C(=O)NC2CCCCC2)c2cn(C)nc2C)c1 (configuration not stated)
[1]
  AC50: 0.13 µM [falling, full curve]
[2]
  AC50: 0.146 µM [falling, full curve]

## C=CCN1C(=O)c2cccc3c(Br)ccc(c23)C1=O
[2]
  AC50: 0.13 µM [rising, full curve, poor fit]

## Cc1occc1-c1nc(-c2ccncc2)no1
[1]
  AC50: 2.59 µM [rising, partial curve]
[2]
  AC50: 6.51 µM [rising, single point]

## COc1ccccc1OCCCCN1CCC(C)CC1
  cell number change: -5.56%

## CC(=O)OC1CC(C)(C)N(OC(=O)c2ccccc2)C(C)(C)C1
  cell number change: -24%
[2]
  AC50: 14.6 µM [falling, partial curve]

## COc1ccc(N2CC(C(=O)Nc3ccc(S(=O)(=O)N4CCCCC4)cc3)CC2=O)cc1 (configuration not stated)
  cell number change: -6.03%
[2]
  AC50: 18.4 µM [falling, partial curve, poor fit]
